In the experiment the test system is mouse pancreatic islets. Put plainly: Glucose-stimulated insulin secretion. The format is cell-based. The following applies: Pancreatic islet.

Where two headings read alike, the source gives them in different places.

`CCCN1CCC[C@@H]2Cc3n[nH]cc3C[C@H]21` [Quinpirole, quinpirole]: the IC50 is, setting by setting: (1.5 h, read-out: IC50, inhibition of GSIS) 1.59 µM; (1.5 h, read-out: pIC50, inhibition of GSIS (converted)) 1.58 µM; (read-out: IC50, inhibition of GSIS) 1.6 µM.

Source of the values: article PMC9379584 (iScience, 2022).
